Chains of the proteins cited; added tags and fusions are not shown. Lines headed by an entry give the natural chain unless they say otherwise; changes in a name come on top.
UniProt P61960: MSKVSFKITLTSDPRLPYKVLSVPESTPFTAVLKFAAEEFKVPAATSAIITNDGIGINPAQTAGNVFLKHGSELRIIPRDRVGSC

According to publication PMC5428781, “Novel insights into the interaction of UBA5 with UFM1 via a UFM1-interacting sequence” (Scientific Reports, 2017):

The molecules below were run against T1, ubiquitin-fold modifier 1 (UFM1) (human, UniProt P61960 1-83) (assay: crystal structure; UIS-UFM1 fusion, P4(3)22, two molecules in the asymmetric unit; hanging drop, 20 °C, 0.2 M potassium phosphate dibasic, 20% PEG 3350; both purified).
T1 construct: ubiquitin-fold modifier 1 (UFM1), human; the form that ends at Gly 83 (the residues missing in the models are counted up to Gly 83); pET15b, N-terminal His6 followed by a TEV site; purified by the protocol of the UBA5 constructs, which removes the tag; In solution a monomer and a fraction of dimer; also called UFM1 WT; UFM1 alone; source: E. coli, purified (His-Trap, TEV cleavage, second …)

| binding | Molecule |
| --- | --- |
| binds | IIHEDNEWGIELV (domain or fragment, UniProt Q9GZZ9 334-346) [UFM1-interacting sequence (UIS) of UBA5, amino acids 334–346] |

Each molecule was assayed against His6-UFM1 (human) (UniProt P61960) (assay: pull-down; 6XHis-hUFM1 immobilised on Ni beads; UBA5 truncations, GST-UBA5 fragments or mutants added; 15% SDS-PAGE, Coomassie Brilliant Blue; both purified).

| Molecule | binding |
| --- | --- |
| GST-UBA5 314–404 (from UniProt Q9GZZ9 314-404) (domain or fragment) | binds |
| GST-UBA5 314–363 (from UniProt Q9GZZ9 314-363) (domain or fragment) | binds |
| EYKKKVAALPKQEVIQEEEEIIHEDNEWGIELV (domain or fragment, UniProt Q9GZZ9 314-346) [GST-UBA5 314–346] | binds |

More lines, now with the values ahead:

| binding | Molecule |
| --- | --- |
| no binding | UBA5 adenylation domain (AA 57–329) (domain or fragment, UniProt Q9GZZ9 57-329) MALKRMGIVSDYEKIRTFAVAIVGVGGVGSVTAEMLTRCGIGKLLLFDYDKVELANMNRLFFQPHQAGLSKVQAAEHTLRNINPDVLFEVHNYNITTVENFQHFMDRISNGGLEEGKPVDLVLSCVDNFEARMTINTACNELGQTWMESGVSENAVSGHIQLIIPGESACFACAPPLVVAANIDEKTLKREGVCAASLPTTMGVVAGILVQNVLKFLLNFGTVSFYLGYNAMQDFFPTMSMKPNPQCDDRNCRKQQEEYKKKVAALPKQEVIQ |
| binds | UBA5 346 (amino acids 57–346) (domain or fragment, UniProt Q9GZZ9 57-346) MALKRMGIVSDYEKIRTFAVAIVGVGGVGSVTAEMLTRCGIGKLLLFDYDKVELANMNRLFFQPHQAGLSKVQAAEHTLRNINPDVLFEVHNYNITTVENFQHFMDRISNGGLEEGKPVDLVLSCVDNFEARMTINTACNELGQTWMESGVSENAVSGHIQLIIPGESACFACAPPLVVAANIDEKTLKREGVCAASLPTTMGVVAGILVQNVLKFLLNFGTVSFYLGYNAMQDFFPTMSMKPNPQCDDRNCRKQQEEYKKKVAALPKQEVIQEEEEIIHEDNEWGIELV |

Results are given in words; binding and its absence hold for the method and conditions named. Binding can be weak; no strength is given. For part of these data: Where a sequence is shown, tags or fusion partners need not be part of it.
